Some entries share one result that the patent states for a list of compounds.
Key:
[1] = biological target: T1, Aβ monomers (mAβ), Aβ oligomers (oAβ), and Aβ fibrils (fAβ) (Homo sapiens, UniProt P05067); assay: Emission scan (fluorescence spectral scanning) of compound mixed with Aβ species; assay type: binding; details: compound mixed with Aβ compared with compound alone
T1 construct: To prepare oligomeric and fibrillar Aβ, Aβ peptides were incubated according to a previously known Aβ aggregation protocol

By UniProt entry, the sequences of proteins in these tests, tags left out. Residues count along the entry.
UniProt P05067, 672-713 limits assumed: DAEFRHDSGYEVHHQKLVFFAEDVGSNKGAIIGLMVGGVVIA

Aβ oligomers = Aβ oligomers (Homo sapiens, UniProt P05067); assay: Fluorescence intensity over time (24 hours) of compound bound to Aβ oligomers; assay type: binding; design: To prepare oligomeric and fibrillar Aβ, Aβ peptides were incubated according to a previously known Aβ aggregation protocol; details: monitored for 24 hours
soluble Aβ oligomers [2] = biological target: T2, soluble Aβ oligomers (Homo sapiens, UniProt P05067); assay: Ex vivo detection in cortex lysates, 5XFAD versus wild-type mice; design: species or system 5XFAD transgenic mice; details: 6-month-old female mice, n = 3; compound 50 µM; 24 hours
T2 construct: tissue The Jackson Laboratory (mice); host or cells: 6-month-old female 5XFAD transgenic mice: cortex and hippocampus lysates (soluble fraction), CSF, plasma, fixed brain sections

soluble Aβ oligomers [3] = biological target: T2, soluble Aβ oligomers; assay: Ex vivo detection in hippocampal lysates, 5XFAD versus wild-type mice; design: species or system 5XFAD transgenic mice; details: 6-month-old female mice, n = 3; compound 50 µM; 24 hours
Aβ oligomers in plasma = biological target: T3, Aβ oligomers in plasma (Homo sapiens, UniProt P05067); assay: Ex vivo detection in plasma, 5XFAD versus wild-type mice; design: species or system 5XFAD transgenic mice; details: 6-month-old female mice, n = 3; EDTA plasma; compound 50 µM; 24 hours
T3 construct: tissue The Jackson Laboratory (mice); host or cells: 6-month-old female 5XFAD transgenic mice: cortex and hippocampus lysates (soluble fraction), CSF, plasma, fixed brain sections

soluble Aβ oligomers [4] = assay: Ex vivo detection in CSF, 5XFAD versus wild-type mice; design: species or system 5XFAD transgenic mice; details: 6-month-old female mice, n = 3; compound 50 µM; 24 hours

| Structure (SMILES) | emission intensity when bound to Aβ monomers, Aβ oligomers, or Aβ fibrils [1] | fluorescence intensity over time when bound to Aβ oligomers (Aβ oligomers) | further results |
| --- | --- | --- | --- |
| COc1ccc(-c2cn3c(C)cc(C#N)c3c3c(F)cccc23)cc1 [AMD-D-279, 10-fluoro-6-(4-methoxyphenyl)-3-methylpyrrolo[2,1-a]isoquinoline-1-carbonitrile] | specific increase in fluorescence signals |  |  |
| Cc1ccc2c(c1)c(-c1ccc(F)cc1)cn1c(C)cc(C#N)c21 [AMD-D-270, 6-(4-fluorophenyl)-3,8-dimethylpyrrolo[2,1-a]isoquinoline-1-carbonitrile] | showed almost no fluorescence alone but exhibited fluorescence only when bound to Aβ monomers, Aβ oligomers, or Aβ fibrils |  |  |
| COc1ccc2c(c1)c(-c1ccccc1)cn1c(C)cc(C#N)c21 [IK15g, 8-methoxy-3-methyl-6-phenylpyrrolo[2,1-a]isoquinoline-1-carbonitrile] |  | decreased only slightly while remaining stable overall | fluorescence intensity, significant difference between 5XFAD transgenic mice and wild-type mice, cortical samples (soluble Aβ oligomers [2]): increased in the wild-type mouse cortex |
| Cc1ccc2c(c1)c(-c1ccccc1)cn1c(C)cc(C#N)c21 [IK15j, 3,8-dimethyl-6-phenylpyrrolo[2,1-a]isoquinoline-1-carbonitrile] |  | decreased only slightly while remaining stable overall | fluorescence intensity, significant difference between 5XFAD transgenic mice and wild-type mice, hippocampal samples (soluble Aβ oligomers [3]): increased in the 5XFAD transgenic mouse hippocampus; fluorescence intensity, significant difference between 5XFAD transgenic mice and wild-type mice, cortical samples (soluble Aβ oligomers [2]): increased in the 5XFAD transgenic mouse cortex; fluorescence intensity, significant difference between 5XFAD transgenic mice and wild-type mice, plasma (Aβ oligomers in plasma): increased in 5XFAD transgenic mouse plasma; fluorescence intensity, significant difference between 5XFAD transgenic mice and wild-type mice, CSF samples (soluble Aβ oligomers [4]): increased in the CSF of 5XFAD transgenic mice |
| Cc1cc(C#N)c2c3ccc(F)cc3c(-c3ccccc3)cn12 [AMD-D-253, 8-fluoro-3-methyl-6-phenylpyrrolo[2,1-a]isoquinoline-1-carbonitrile] | specific increase in fluorescence signals |  |  |
| Cc1cc(C#N)c2c3ccccc3c(-c3ccccc3)cn12 [IK15a, 3-methyl-6-phenylpyrrolo[2,1-a]isoquinoline-1-carbonitrile] |  | decreased only slightly while remaining stable overall | fluorescence intensity, significant difference between 5XFAD transgenic mice and wild-type mice, hippocampal samples (soluble Aβ oligomers [3]): increased in the 5XFAD transgenic mouse hippocampus; fluorescence intensity, significant difference between 5XFAD transgenic mice and wild-type mice, plasma (Aβ oligomers in plasma): increased in wild-type mouse plasma; fluorescence intensity, significant difference between 5XFAD transgenic mice and wild-type mice, CSF samples (soluble Aβ oligomers [4]): increased in the CSF of 5XFAD transgenic mice |
| Cc1cc(C#N)c2c3cc(F)ccc3c(-c3cccs3)cn12 [AMD-D-277, 9-fluoro-3-methyl-6-(thiophen-2-yl)pyrrolo[2,1-a]isoquinoline-1-carbonitrile] | specific increase in fluorescence signals |  |  |
| Cc1cn2c(C)cc(C#N)c2c2ccc(-c3ccccc3)cc12 [IK15q, 3,6-dimethyl-8-phenylpyrrolo[2,1-a]isoquinoline-1-carbonitrile] |  |  | fluorescence intensity, significant difference between 5XFAD transgenic mice and wild-type mice, cortical samples (soluble Aβ oligomers [2]): increased in the 5XFAD transgenic mouse cortex |
| COc1ccc(-c2cn3c(C)cc(C#N)c3c3ccc(Br)cc23)cc1 [IK15s, 8-bromo-6-(4-methoxyphenyl)-3-methylpyrrolo[2,1-a]isoquinoline-1-carbonitrile] |  |  | fluorescence intensity, significant difference between 5XFAD transgenic mice and wild-type mice, hippocampal samples (soluble Aβ oligomers [3]): increased in the 5XFAD transgenic mouse hippocampus; fluorescence intensity, significant difference between 5XFAD transgenic mice and wild-type mice, cortical samples (soluble Aβ oligomers [2]): increased in the 5XFAD transgenic mouse cortex |
| Cc1cc(C#N)c2c3ccccc3c(-c3ccc4ccccc4c3)cn12 [IK15e, 3-methyl-6-(naphthalen-2-yl)pyrrolo[2,1-a]isoquinoline-1-carbonitrile] |  | decreased only slightly while remaining stable overall |  |
| COc1ccc(-c2cn3c(C)cc(C#N)c3c3ccc(C)cc23)cc1 [IK15k, 6-(4-methoxyphenyl)-3,8-dimethylpyrrolo[2,1-a]isoquinoline-1-carbonitrile] |  | decreased only slightly while remaining stable overall | fluorescence intensity, significant difference between 5XFAD transgenic mice and wild-type mice, hippocampal samples (soluble Aβ oligomers [3]): increased in the 5XFAD transgenic mouse hippocampus |
| COc1ccc(-c2cn3c(C)cc(C#N)c3c3ccc(-c4ccccc4)cc23)cc1 [IK15o, 6-(4-methoxyphenyl)-3-methyl-8-phenylpyrrolo[2,1-a]isoquinoline-1-carbonitrile] | lower than that of the emission spectrum of the compound alone |  |  |
| Cc1cc(C#N)c2c3ccccc3c(-c3ccc(Cl)cc3)cn12 [IK15d, 6-(4-chlorophenyl)-3-methylpyrrolo[2,1-a]isoquinoline-1-carbonitrile] |  | decreased only slightly while remaining stable overall | fluorescence intensity, significant difference between 5XFAD transgenic mice and wild-type mice, cortical samples (soluble Aβ oligomers [2]): increased in the 5XFAD transgenic mouse cortex |
| Cc1cc(C#N)c2c3ccc(-c4ccccc4)cc3c(-c3ccccc3)cn12 [IK15n, 3-methyl-6,8-diphenylpyrrolo[2,1-a]isoquinoline-1-carbonitrile] |  | decreased only slightly while remaining stable overall | fluorescence intensity, significant difference between 5XFAD transgenic mice and wild-type mice, hippocampal samples (soluble Aβ oligomers [3]): increased in the wild-type mouse hippocampus; fluorescence intensity, significant difference between 5XFAD transgenic mice and wild-type mice, CSF samples (soluble Aβ oligomers [4]): increased in the CSF of wild-type mice |
| COc1ccc(-c2cn3c(C)cc(C#N)c3c3ccc(F)cc23)cc1 [AMD-D-254, 8-fluoro-6-(4-methoxyphenyl)-3-methylpyrrolo[2,1-a]isoquinoline-1-carbonitrile] | specific increase in fluorescence signals |  |  |
| Cc1cc(C#N)c2c3c(F)cccc3c(-c3ccc(F)cc3)cn12 [AMD-D-280, 10-fluoro-6-(4-fluorophenyl)-3-methylpyrrolo[2,1-a]isoquinoline-1-carbonitrile] | specific increase in fluorescence signals |  |  |
| COc1ccc(-c2cn3c(C)cc(C#N)c3c3ccc(OC)cc23)cc1 [AMD-D-264, 8-methoxy-6-(4-methoxyphenyl)-3-methylpyrrolo[2,1-a]isoquinoline-1-carbonitrile] | specific increase in fluorescence signals |  |  |
| Cc1ccc(-c2cn3c(C)cc(C#N)c3c3ccc(-c4ccccc4)cc23)cc1 [IK15p, 3-methyl-8-phenyl-6-(p-tolyl)pyrrolo[2,1-a]isoquinoline-1-carbonitrile] | lower than that of the emission spectrum of the compound alone |  |  |
| Cc1ccc2c(c1)c(-c1cccs1)cn1c(C)cc(C#N)c21 [AMD-D-272, 3,8-dimethyl-6-(thiophen-2-yl)pyrrolo[2,1-a]isoquinoline-1-carbonitrile] | specific increase in fluorescence signals |  |  |
| Cc1cc(C#N)c2c3c(F)cccc3c(-c3ccccc3)cn12 [AMD-D-278, 10-fluoro-3-methyl-6-phenylpyrrolo[2,1-a]isoquinoline-1-carbonitrile] | specific increase in fluorescence signals |  |  |
| Cc1cc(C#N)c2c3ccc(F)cc3c(-c3cccs3)cn12 [AMD-D-257, 8-fluoro-3-methyl-6-(thiophen-2-yl)pyrrolo[2,1-a]isoquinoline-1-carbonitrile] | specific increase in fluorescence signals |  |  |
| COc1ccc(-c2cn3c(C)cc(C#N)c3c3ccc4ccccc4c23)cc1 [IK15l, 5-(4-methoxyphenyl)-8-methylbenzo[f]pyrrolo[2,1-a]isoquinoline-10-carbonitrile] |  | decreased only slightly while remaining stable overall |  |
| Cc1cc(C#N)c2c3cc(F)ccc3c(-c3ccccc3)cn12 [AMD-D-273, 9-fluoro-3-methyl-6-phenylpyrrolo[2,1-a]isoquinoline-1-carbonitrile] | specific increase in fluorescence signals |  |  |
| COc1ccc(-c2cn3c(C)cc(C#N)c3c3ccc(Cl)cc23)cc1 [IK15r, 8-chloro-6-(4-methoxyphenyl)-3-methylpyrrolo[2,1-a]isoquinoline-1-carbonitrile] |  |  | fluorescence intensity, significant difference between 5XFAD transgenic mice and wild-type mice, hippocampal samples (soluble Aβ oligomers [3]): increased in the 5XFAD transgenic mouse hippocampus; fluorescence intensity, significant difference between 5XFAD transgenic mice and wild-type mice, cortical samples (soluble Aβ oligomers [2]): increased in the 5XFAD transgenic mouse cortex; fluorescence intensity, significant difference between 5XFAD transgenic mice and wild-type mice, plasma (Aβ oligomers in plasma): increased in 5XFAD transgenic mouse plasma; fluorescence intensity, significant difference between 5XFAD transgenic mice and wild-type mice, CSF samples (soluble Aβ oligomers [4]): increased in the CSF of 5XFAD transgenic mice |
| Cc1ccc(-c2cn3c(C)cc(C#N)c3c3ccccc23)cc1 [IK15c, 3-methyl-6-(p-tolyl)pyrrolo[2,1-a]isoquinoline-1-carbonitrile] |  | decreased only slightly while remaining stable overall |  |
| COc1ccc(-c2cn3c(C)cc(C#N)c3c3ccccc23)cc1 [IK15b, 6-(4-methoxyphenyl)-3-methylpyrrolo[2,1-a]isoquinoline-1-carbonitrile] |  | decreased only slightly while remaining stable overall | fluorescence intensity, significant difference between 5XFAD transgenic mice and wild-type mice, hippocampal samples (soluble Aβ oligomers [3]): increased in the 5XFAD transgenic mouse hippocampus |

Source: EP4755889A1, “COMPOUND FOR DETECTING AMYLOID-BETA OLIGOMER AND METHOD FOR DIAGNOSING DEGENERATIVE BRAIN DISEASE USING SAME” (Amyloid Solution Inc., priority 2024, dated 2025)
